Results on one substance are retold here after publication PMC7864959.

Amino acid sequences for entries named in this document (tags omitted). A change or cut given only in a name is not applied to a line headed by its entry.
UniProt P25445: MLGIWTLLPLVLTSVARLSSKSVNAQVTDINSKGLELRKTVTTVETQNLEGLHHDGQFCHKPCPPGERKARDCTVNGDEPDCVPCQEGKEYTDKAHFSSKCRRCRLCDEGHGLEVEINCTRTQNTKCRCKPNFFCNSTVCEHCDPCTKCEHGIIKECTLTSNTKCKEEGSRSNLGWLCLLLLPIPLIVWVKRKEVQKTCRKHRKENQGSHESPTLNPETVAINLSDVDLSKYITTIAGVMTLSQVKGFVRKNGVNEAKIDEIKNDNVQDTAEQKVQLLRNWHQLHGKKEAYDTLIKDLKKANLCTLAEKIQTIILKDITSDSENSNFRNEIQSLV
UniProt Q13158: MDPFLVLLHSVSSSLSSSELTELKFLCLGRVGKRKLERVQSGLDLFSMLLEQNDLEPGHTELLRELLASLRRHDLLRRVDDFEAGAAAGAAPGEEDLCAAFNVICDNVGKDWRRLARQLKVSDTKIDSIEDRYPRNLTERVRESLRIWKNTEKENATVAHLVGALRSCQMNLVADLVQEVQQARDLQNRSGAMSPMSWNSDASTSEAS

Results are given in words; binding and its absence hold for the method and conditions named. A result given as binding can be weak or reduced; the word gives no strength.

This assay has as its target GST-tagged CD95 intracellular domain (UniProt P25445). Kind of assay: pull-down; reconstituted CD95 DISC: glutathione sepharose beads coated with purified GST-CD95-IcD (10 µg) incubated with r-FADD (5 µg), 16 h at 20 °C; both purified.

Turning to “recombinant FADD (from UniProt Q13158 1-208)”, the binding entry is recorded as “binds”.
